Residue numbers refer to the chain shown, from its start. Results are given in words; binding and its absence hold for the method and conditions named. Some binding calls cover weakened binding; strength is not graded here.
Experiments:
[1] = target: T1, antigen peptide (human periostin exon 21 with a Cys residue added to the N-terminus) (human); assay: ELISA, hybridoma culture supernatant on plate coated with OVA-conjugated antigen peptide
T1 sequence (peptide, N-terminal Cys conjugated to a carrier protein (ovalbumin in the ELISA)): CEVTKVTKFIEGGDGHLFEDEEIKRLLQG

[2] = target: T2, human periostin exon 21 (human); assay: peptide array of 10-amino-acid peptides of exon 21, Alexa Fluor 647-labeled secondary antibody
T2 sequence (peptide): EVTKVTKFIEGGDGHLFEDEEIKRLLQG

B1: Antibody A (antibody, V domains shown)
VH: KVQLVQSGAEVVKPGASVKLSCKASGYTFTEYIIHWVKQASGQGLEWIGWFYPGRGIIKYNEKFKDKATLTADKSISTVYMDLSRLRSEDTAVYFCARHGITTATGAMDYWGQGTLVTVSS
VL: DVVMTQTPLSLSVTLGQPASISCRSSQSLLHSNGNTYLHWYLQKPGQAPKLLIYKVSNRFSGVPDRFSGSGSGTDFTLKISRVEAEDVGVYFCSQSTHVPFTFGQGTKLEIK
- binding [1]: binds
- binding [2]: binds

B2: Antibody B (antibody, V domains shown)
VH: EVQLVESGGGLVKPGGSLRLSCAASGITFSSYAMSWVRQAPGKGLEWVASISSGGSTYYPDSVKGRFTISRDNAKNSLYLQMNSLRAEDTAVYYCVAIWDGSSYGYWGQGTTVTVSS
VL: B1 VL with V2I, L15P, R24K, S26G, L30V, N35K, A48S, K50Q, F92Y
- binding [1]: binds
- binding [2]: binds

B3: Antibody C (antibody, V domains shown)
VH: EVQLVESGGGLVKPGGSLRLSCAASGFIFSSYAMSWVRQPPGKRLEWVASIGSGGTTYYPDSVRGRFTISRDNARNILYLQMRSLRAEDTAVYYCAAIWDGSSHGYWGQGTLLTVSS
VL: DVVMTQSPLSLPVTLGQPASISCRSSQNLVHSNGNTYLHWYLQRPGQSPQLLIYKVSNRFSGVPDRFSGSGSGTDFTLKISRVEAEDLGVYYCSQSTHVPYTFGPGTKLEIK
- binding [1]: binds
- binding [2]: binds

B4: Antibody D (antibody, V domains shown)
VH: EVQLVESGGGLVKPGGSLRLSCAASGFTFSSYAMSWVRQTPEKRLEWVASINSGGVTTYYPDSVKGRFTISRDNAINILYLQMRSLRSEDTALYYCAAIWDGSSHGYWGQGTLVTVSS
VL: B3 VL with N28S, Q50R, L88F, Y92F
- binding [1]: binds
- binding [2]: binds

B5: Antibody E (antibody, V domains shown)
VH: EVQLVESGGGLVQPGGSLKLSCAASGFTFSDAWMDWVRQAPGKGLEWVAEIRNKANNHATYFTESVKGRFTISRDDSKNTVYLQMNSLRAEDTAVYYCTTATFVYWGQGTLVTVSS
VL: DVVMTQSPLSLPVSLGDRASISCRSSQSLVRNGITYLHWYQQKPGQSPKLLIYKVSNRFSGVPDRFSGSGSGTDFTLKISSVEAEDFGVYYCSQTPHVPYTFGQGTKLEIK
- binding [1]: binds
- binding [2]: binds

— patent publication US20250042982A1
